No constants are given. Whether binding was seen depends on the method and setting. In cells and extracts the contact can be indirect.
Legend:
[1] = biological target: C-X-C motif chemokine receptor type 4 (CXCR4) (human (endogenous in platelets)) (UniProt P61073); test: condition: only platelets treated with 1 ug/mL CXCL12 or 1 ug/mL CXCL14, without ACKR3 agonist; proximity ligation; Duolink PLA on washed human platelets, flow cytometry read-out; platelets treated with 1 ug/mL CXCL12 or 1 ug/mL CXCL14 (also 1 ug/mL MIF) for 15 min at RT, no ACKR3 agonist
[2] = biological target: C-X-C motif chemokine receptor type 4 (CXCR4) (human (endogenous in platelets)) (UniProt P61073); test: condition: only platelets treated with 1 ug/mL CXCL12 or 1 ug/mL CXCL14, without ACKR3 agonist; proximity ligation; Duolink PLA on washed human platelets centrifuged onto coverslips, fluorescence microscopy read-out; platelets treated with 1 ug/mL CXCL12 or 1 ug/mL CXCL14 (also 1 ug/mL MIF) for 15 min at RT, no ACKR3 agonist
[3] = biological target: C-X-C motif chemokine receptor type 4 (CXCR4) (human (endogenous in platelets)) (UniProt P61073); test: condition: only platelets activated with 5 uM ADP, 1 ug/mL CRP-XL or 1 U/mL thrombin, without ACKR3 agonist; proximity ligation; Duolink PLA on washed human platelets centrifuged onto coverslips, fluorescence microscopy read-out; platelets treated with 5 uM ADP, 1 ug/mL CRP-XL or 1 U/mL thrombin for 30 min at RT, no ACKR3 agonist
[4] = biological target: C-X-C motif chemokine receptor type 4 (CXCR4) (human (endogenous in platelets)) (UniProt P61073); test: condition: only platelets activated with 5 uM ADP, 1 ug/mL CRP-XL or 1 U/mL thrombin, without ACKR3 agonist; proximity ligation; Duolink PLA on washed human platelets, flow cytometry read-out; platelets treated with 5 uM ADP, 1 ug/mL CRP-XL or 1 U/mL thrombin for 30 min at RT, no ACKR3 agonist

By UniProt entry, the sequences of proteins in these tests, tags left out.
UniProt P61073: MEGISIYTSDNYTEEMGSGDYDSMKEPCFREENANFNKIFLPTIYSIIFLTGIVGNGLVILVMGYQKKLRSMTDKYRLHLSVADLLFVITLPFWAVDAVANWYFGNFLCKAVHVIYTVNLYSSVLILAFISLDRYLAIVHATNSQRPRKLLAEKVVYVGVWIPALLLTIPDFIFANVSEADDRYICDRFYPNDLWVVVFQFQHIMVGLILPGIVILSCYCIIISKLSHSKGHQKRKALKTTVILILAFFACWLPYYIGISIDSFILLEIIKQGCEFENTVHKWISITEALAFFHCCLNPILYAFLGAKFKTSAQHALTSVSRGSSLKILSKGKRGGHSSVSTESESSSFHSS
UniProt P25106: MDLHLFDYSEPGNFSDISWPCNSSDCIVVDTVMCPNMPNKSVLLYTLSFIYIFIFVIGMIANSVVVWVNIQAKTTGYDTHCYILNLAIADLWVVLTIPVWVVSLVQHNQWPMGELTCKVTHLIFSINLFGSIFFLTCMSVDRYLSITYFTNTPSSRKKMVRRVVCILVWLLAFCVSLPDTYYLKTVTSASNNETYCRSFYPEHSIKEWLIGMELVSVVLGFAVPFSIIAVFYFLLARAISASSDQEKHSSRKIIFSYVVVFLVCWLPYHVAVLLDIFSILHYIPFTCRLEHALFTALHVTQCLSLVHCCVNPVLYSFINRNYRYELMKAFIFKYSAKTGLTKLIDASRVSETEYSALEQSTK

Measured: binding

atypical chemokine receptor 3 (ACKR3) (from UniProt P25106 1-362)
no binding: all assays above
